Among the data in patent US20190194253A1 (ARIEL UNIVERSITY RESEARCH AND DEVELOPMENT, published 2019) are binding values, retold here.

Amino acid sequences for entries named in this document (tags omitted). A change or cut given only in a name is not applied to a line headed by its entry.
UniProt P06756: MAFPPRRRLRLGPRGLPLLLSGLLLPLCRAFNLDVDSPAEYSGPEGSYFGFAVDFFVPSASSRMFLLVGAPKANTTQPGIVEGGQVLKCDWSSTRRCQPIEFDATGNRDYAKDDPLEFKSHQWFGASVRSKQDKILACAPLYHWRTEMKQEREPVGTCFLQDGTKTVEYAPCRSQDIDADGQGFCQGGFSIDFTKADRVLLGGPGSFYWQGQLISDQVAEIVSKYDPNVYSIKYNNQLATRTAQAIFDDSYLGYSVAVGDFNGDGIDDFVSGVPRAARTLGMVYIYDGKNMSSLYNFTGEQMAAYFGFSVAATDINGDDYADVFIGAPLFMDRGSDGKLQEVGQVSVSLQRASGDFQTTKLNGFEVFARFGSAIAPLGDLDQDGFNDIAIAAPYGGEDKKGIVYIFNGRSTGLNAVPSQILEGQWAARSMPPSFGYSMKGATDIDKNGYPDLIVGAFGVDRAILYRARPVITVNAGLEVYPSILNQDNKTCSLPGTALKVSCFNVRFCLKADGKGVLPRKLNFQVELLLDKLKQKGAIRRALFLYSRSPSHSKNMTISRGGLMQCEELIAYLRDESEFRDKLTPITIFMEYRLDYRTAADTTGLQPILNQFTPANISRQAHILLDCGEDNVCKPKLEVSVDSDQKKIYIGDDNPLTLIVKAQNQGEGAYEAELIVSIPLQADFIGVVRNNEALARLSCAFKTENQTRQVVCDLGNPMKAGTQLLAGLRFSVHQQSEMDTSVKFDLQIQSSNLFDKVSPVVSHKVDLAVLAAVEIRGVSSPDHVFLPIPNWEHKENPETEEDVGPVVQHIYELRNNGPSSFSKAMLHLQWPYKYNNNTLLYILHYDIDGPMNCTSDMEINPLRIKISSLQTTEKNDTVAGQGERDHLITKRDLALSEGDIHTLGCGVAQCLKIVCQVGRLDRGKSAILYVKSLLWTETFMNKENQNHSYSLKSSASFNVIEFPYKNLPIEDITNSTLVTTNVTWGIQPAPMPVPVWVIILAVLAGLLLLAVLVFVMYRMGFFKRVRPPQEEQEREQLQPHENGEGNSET

Experiment [1] has as its target T1, purified Integrin αvβ3 (UniProt P06756 31-992; P05106 27-718, limits assumed).
T1 construct: Purified integrin coated on 96-well plates; also called integrin alpha-v-beta3; αVβ3 integrin
Nature of the experiment: homologous competition: varied unlabeled ALOS-2 against 10 µM FITC-labeled ALOS-2 on wells coated with purified integrin αvβ3.

The target of experiment [2] is T1, purified Integrin αvβ3. Nature of the experiment: homologous competition: varied unlabeled ALOS-3 against 10 µM FITC-labeled ALOS-3 on wells coated with purified integrin αvβ3.
For experiment [3], the target named is T1, purified Integrin αvβ3. Nature of the experiment: homologous competition: varied unlabeled ALOS-1 against 10 µM FITC-labeled ALOS-1 on wells coated with purified integrin αvβ3.

No constants are given. Whether binding was seen depends on the method and setting. Some binding calls cover weakened binding; strength is not graded here.

Regarding CPPSNHLLC [ALOS-2], the binding result with purified Integrin αvβ3 [1] was “binds”. For the molecule CAPSPSRLC [ALOS-3], in the experiment with purified Integrin αvβ3 [2], the binding result was “binds”. In the case of CNLSSSWIC [ALOS-1], the binding entry in the experiment with purified Integrin αvβ3 [3] is “binds”.
